Measured values taken from PubChem BioAssay AID1471 (National Center for Advancing Translational Sciences (NCATS), 2008).
Screen size: about 230,000 compounds; about 310 (0.13%) were called active. Inconclusive results, whose numbers are uncertain, are shown with a selection of clear calls. Calls come from the whole dose curve; as a rule, active = well fitted activation curve with a large enough effect; inconclusive = small, poorly fitted or top-dose-only effect; inactive = no such curve, though single readings can be large or run the other way. Where the call is inconclusive, the potency comes from a doubtful curve fit.

Assay: qHTS Multiplex Assay to Identify Dual Action Probes in a Cell Model of Huntington: Cytoprotection (ATP); note: nearly all actives have a fitted effect of over 45% in size;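 for cytoprotection (ATP increase): toxic huntingtin expression switched on by the ecdysone agonist tebufenozide; % of control where 0% means no effect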
Conditions: PC12 HTT-Q103 induced, ATP luminescence, 40 h; cytoprotection (ATP increase): at 56.4 µM (top of the series) unless noted
Description: NIH Chemical Genomics Center [NCGC]
NIH Molecular Libraries Probe Production centers Network [MLPCN]
Assay Submitter (PI): Wei Zheng
Huntington's disease is a neurodegenerative disorder caused by a trinucleotide repeat expansion in Exon 1 of the Huntingtin gene. The CAG trinucleotide encodes glutamine and polyglutamine expansions cause cell death in selective areas of the brain. Huntington polyglutamine repeats have the tendency to form aggregates which are observable in later stages of the disease. The exact nature of the aggregates, whether toxic, protective, or insignificant, is unclear.
A stable PC12 cell line containing a gene fusion of Exon 1 of the Huntingtin gene linked to GFP under the control of the inducible ecdysone promoter were used as the cell-based model of Huntington Disease for high throughput screening. Exon 1 of the Huntingtin gene contained an expansion of 103 polyglutamines (Q103) which, when expressed, caused cell death and distinct, bright GFP aggregates. The amount of cell death and the size and intensity of GFP aggregates increased over time and induction level. The cell death were quantified with a measurement of ATP content in the cells. A maximal 40-50% of cell death was observed when the Huntington gene was induced in this cell line.
We optimized this assay in a homogeneous 1536 well format. A quantitative high throughput screen (qHTS) was conducted on the PC12 cells which were induced to express the toxic fusion construct. Small molecules which prevented cell death were identified by using a luminescent ATP quantification method (Perkin Elmer's ATPlite).
PC12 cells stably containing a construct with an ecdysone inducible promoter expressing GFP fused to the exon 1 of HTTQ103 (Huntington protein which containing a 103 ployglutamine expansion) were used.
NCGC Assay Protocol Summary:
Sequence, Parameter, Description
1, Reagent, 5 uL 1500 cells/well 1536 TC treated White clear bottom plate
2, Compound, 23 nL Tebufenozide inducer (100 nM final) to all columns
3, Compound, 23 nL 40 uM to 0.5 nM Libraries
5, Reagent, 5 ul ATPLite cell death assay reagent
6, Detector, 4 sec integration with a Viewlux Luminescent
Media consisted of phenol red free DMEM + 5% equine serum (Hyclone # SH30072.03 ), 5% supplemented Bovine Calf Serum (Hyclone # SH30074.03 ), 1x pen/strep, no G418
Control columns: 1 = DMSO, 2= 2 uM teb dilns (1:1), 4 = 100 nM Teb inducer. Sample columns received 100 nM Teb.
Potency is the fitted concentration of half-maximal effect.

Structure (SMILES)	Potency	cytoprotection (ATP increase)
CCc1nnc(NS(=O)(=O)c2ccc(NC(=S)NC(=O)c3ccccc3)cc2)s1	inconclusive: 5010 nM [activator, single point]	–
Cc1cc(C)n(S(=O)(=O)c2ccc3ccccc3c2)n1	–	inactive: -4.16%
COc1ccc(CC(=O)N2N=C(C)CC2(O)C(F)(F)F)cc1OC (configuration not stated)	inconclusive: 1120 nM [activator, single point]	–
C/C=C/C(=O)OCC(=O)Nc1ccccc1Br	inconclusive: 1000 nM [activator, single point]	–
N#Cc1ccc(CN2CCC3(CCNCC3)CC2)cc1	inconclusive: 17800 nM [activator, single point]	–
CNC(=O)c1cccnc1Nc1cccc(C(F)(F)F)c1	inconclusive: 708 nM [activator, single point]	–
COc1ccc(-c2nc(-c3ccccc3)oc2Nc2ccccc2C)cc1	inconclusive: 2240 nM [activator, partial curve]	–
O=C(Nc1cccc(C(F)(F)F)c1)C1CCCN1S(=O)(=O)c1cccc2cccnc12 (configuration not stated)	inconclusive: 2240 nM [activator, partial curve]	–
COc1ccc(Cl)cc1C(=O)NNC(=S)NC(=O)c1cc(-c2ccc(Cl)cc2)nc2ccccc12	inconclusive: 7940 nM [activator, partial curve]	–
COC(=O)c1sc(NC(=O)CSc2nnc(Cn3nnc4ccccc43)n2C)nc1C	inconclusive: 1260 nM [activator, single point]	–
CN[C@H]1[C@@H](O)[C@@H](NC)[C@@H]2O[C@@]3(O)C(=O)C[C@@H](C)O[C@H]3O[C@H]2[C@H]1O	inconclusive: 708 nM [activator, partial curve, poor fit]	–
COc1cc(/C=C2\NC(=S)N(C)C2=O)ccc1O	–	inactive: -5.53%
CC1C(=O)CCC2[C@]1(C)CCC1[C@]2(C)CC[C@@]2(C)C3CC(C)(C)CC[C@]3(C)CC[C@@]12C (some centres not stated)	inconclusive: 891 nM [activator, partial curve]	–
Cc1ccc2c(Cl)cc(Cl)c(OCC(=O)Nc3cccc(S(=O)(=O)N(C)C)c3)c2n1	–	inactive: 2.62% [at 10 µM]
CCC(=O)Oc1ccc(C(=O)Nc2ccc3c(c2)C(=O)N(C2CCCCC2)C3=O)cc1	inconclusive: 3550 nM [activator, single point]	–
O=c1cc(Nc2ccc3c(c2)OCCO3)[nH]c(=O)n1-c1ccc(Br)cc1	inconclusive: 89.1 nM [activator, full curve, poor fit]	–
COc1ccccc1N1CCN(C/C(O)=C(\C#N)c2nc(-c3ccccc3)cs2)CC1	–	inactive: -19% [at 0.074 µM]
Cc1ccc(S(=O)(=O)Nc2ccccc2CNc2cccc(C)n2)cc1	inconclusive: 112 nM [activator, partial curve, poor fit]	–
Cc1ccc(C(=O)Nc2nc(=O)n(C(=O)c3ccccc3C)s2)cc1	active: 17800 nM	–
Cc1ccnc(NC(=S)NC(=O)/C=C/c2ccc(Cl)cc2)c1	inconclusive: 631 nM [activator, single point]	–
O=C(Oc1ccccc1)c1ccc(NC(=O)c2ccco2)cc1	–	inactive: -0.413% [at 0.074 µM]
COc1ccc2sc3ccccc3c(=O)c2c1	–	inactive: -5.9%
C[C@@H]1Oc2ccccc2C=C1/C=C/C(=O)O	inconclusive: 4470 nM [activator, single point]	–

3 compounds from above, arranged by count of non-hydrogen atoms, largest number first.
Structure (SMILES)	Potency	cytoprotection (ATP increase)
CCc1nnc(NS(=O)(=O)c2ccc(NC(=S)NC(=O)c3ccccc3)cc2)s1	inconclusive: 5010 nM [activator, single point]	–
O=C(Oc1ccccc1)c1ccc(NC(=O)c2ccco2)cc1	–	inactive: -0.413% [at 0.074 µM]
Cc1ccnc(NC(=S)NC(=O)/C=C/c2ccc(Cl)cc2)c1	inconclusive: 631 nM [activator, single point]	–

Further records follow.

Structure (SMILES)	Potency	cytoprotection (ATP increase)
Cc1ccc(-c2ccc(/C=C3\SC(N4CCOCC4)=NC3=O)o2)cc1	active: 2820 nM	–
CCC(C)NC(=O)C(=O)NCC1CCCN1CC (configuration not stated)	inconclusive: 708 nM [activator, single point]	–
COc1ccc(-c2ccc(CCC(=O)O)n2NC(=O)c2ccc(O)cc2)cc1	inconclusive: 708 nM [activator, single point]	–
CCOC(=O)CSc1nnc(CNC(=O)c2cccc(C)c2)n1C	inconclusive: 35500 nM [activator, single point]	–
Fc1ccccc1COc1ccc(-c2nnn(Cc3ccccc3F)n2)cc1	inconclusive: 708 nM [activator, partial curve]	–
CCc1cc(C(=O)COc2ccccc2F)c(O)cc1O	–	inactive: -2.44% [at 1.9 µM]
O=[N+]([O-])c1ccccc1NCCNS(=O)(=O)c1ccc(Cl)cc1	–	inactive: 3.17% [at 10 µM]
CCOC(=O)c1[nH]c2ccc(Br)cc2c1NC(=O)CCN1CCC(C)CC1	–	inactive: -8.14%
N#Cc1ccccc1-c1ccc2ncnc(NCCN3CCOCC3)c2c1	–	inactive: -13.9%
O=C(c1ccco1)N1CCn2cccc2C1c1ccccc1 (configuration not stated)	active: 891 nM	–
COc1ccc(OC)c(N(CC(=O)Nc2ccc3c(c2)OCO3)S(=O)(=O)c2ccccc2)c1	–	inactive: 8.22% [at 10 µM]
CCOC(=O)c1ccc2ncc(C(=O)OCC)c(Nc3ccc(N4CCOCC4)cc3)c2c1	inconclusive: 5620 nM [activator, single point]	–
COc1ccc(/C=C2/S/C(=N/N=C3\CC4CCC3(C)C4(C)C)NC2=O)cc1 (configuration not stated)	inconclusive: 4470 nM [activator, partial curve, poor fit]	–
CC1(C)C(c2ccccc2)=[N+]([O-])CN1O	–	inactive: 5.26%
O=C(Oc1ccc(/C=N/O)cc1)c1ccccc1Cl	inconclusive: 447 nM [activator, single point]	–
S=C(S)O[C@@H]1C[C@@H]2C[C@H]1[C@@H]1CCC[C@H]21	inconclusive: 316 nM [activator, partial curve]	–
NC(=O)NC(=O)Cc1ccccc1	inconclusive: 1780 nM [activator, single point]	–
CC(C)[C@@H](CC(=O)N[C@@H]1CCCC[C@H]1C(=O)N[C@H](CC(=O)N[C@@H](CCC(=O)O)CC(=O)O)Cc1ccccc1)NC(=O)C[C@H](Cc1ccccc1)NC(=O)[C@@H]1CCCC[C@H]1N	inconclusive: 6310 nM [activator, single point]	–
CO[C@]12C(COC(N)=O)C3=C(C(=O)C(C)=C(N)C3=O)N1CC1NC12 (some centres not stated)	–	inactive: -289%
CCOc1ccc(CNn2nnnc2N)cc1	inconclusive: 112 nM [activator, partial curve, poor fit]	–
O=C(Nc1ccc(N2CCOCC2)nc1)c1ccc(Cl)cc1	inconclusive: 1260 nM [activator, single point]	–
O=C1CC(c2ccco2)CC2=C1C=Nc1ccccc1N2 (configuration not stated)	inconclusive: 25100 nM [activator, single point]	–
COC(CNC(=O)C1CCN(C(=O)c2cc3oc(C)cc3n2Cc2c(F)cccc2Cl)CC1)OC	inconclusive: 355 nM [activator, partial curve]	–

Looked up above:
Entry of N#Cc1ccccc1-c1ccc2ncnc(NCCN3CCOCC3)c2c1 under cytoprotection (ATP increase): inactive: -13.9%
Entry of S=C(S)O[C@@H]1C[C@@H]2C[C@H]1[C@@H]1CCC[C@H]21 under Potency: inconclusive: 316 nM [activator, partial curve]

Remaining list, next part

Structure (SMILES)	Potency	cytoprotection (ATP increase)
Cc1cc(C)n(CCC(=O)N/N=C/c2ccc(O)cc2O)n1	–	inactive: 43.5% [at 10 µM]
COc1cccc(CNc2ncn[nH]2)c1OCc1ccc(F)cc1	–	inactive: -5.15% [at 10 µM]
Cc1ccc(S(=O)(=O)C(CCC(=O)c2ccc(Cl)cc2)C(N)=O)cc1 (configuration not stated)	inconclusive: 2510 nM [activator, partial curve]	–
CC(C)n1c(SCC(=O)N2CCCc3ccccc32)nc2c1c(=O)n(C)c(=O)n2C	–	inactive: 14.1% [at 10 µM]
CC1(C)COC(/C=C/c2cccc([N+](=O)[O-])c2)=N1	–	inactive: 52.1% [at 10 µM]
CCOc1nc(OCC)nc(-n2cc(-c3ccccc3)nn2)n1	inconclusive: 8910 nM [activator, partial curve]	–
COC(=O)c1cccc(NC(=S)NC(C)C)c1	inconclusive: 891 nM [activator, single point]	–
COCCN(C(=S)Nc1ccc(OC)c(Cl)c1)C1CCN(C(C)C)CC1	inconclusive: 35500 nM [activator, partial curve, poor fit]	–
COCCn1c(SCc2cccnc2)nnc1-c1c[nH]c2ccccc12	inconclusive: 1120 nM [activator, single point]	–
C=C[C@H](C)[C@](C)(O)c1ccccc1	inconclusive: 35500 nM [activator, single point]	–
CCCc1nc(SCC(=O)c2ccc(F)cc2)c2ccccc2n1	inconclusive: 631 nM [activator, single point]	–
Cc1cc2oc(=O)cc(CN3CCN(Cc4ccc5c(c4)OCO5)CC3)c2cc1C	–	inactive: 30.7% [at 10 µM]
COc1ccccc1C(=O)NC(=S)NNC(=O)c1sc2ccccc2c1Cl	inconclusive: 5620 nM [activator, single point]	–
CCOc1ccc(S(=O)(=O)Nc2nc3ccccc3nc2-n2ccc(=NC(=O)c3cccs3)cc2)cc1	inconclusive: 112 nM [activator, full curve, poor fit]	–
O=C(Nc1ccc(Oc2ncnc3cc(Cl)ccc23)nc1)c1cccs1	–	inactive: 28.7% [at 10 µM]
O=c1[nH]c2ccccc2c(O)c1O	inconclusive: 14100 nM [activator, single point]	–
CN1CCCC2(CCN(S(=O)(=O)c3ccccc3)CC2)C1	–	inactive: 2.03%
C#CCn1c(C)cc(C)c(S(=O)(=O)c2ccccc2)c1=O	inconclusive: 28200 nM [activator, single point]	–
COc1cc(S(=O)(=O)Nc2c(C)cc(C)cc2C)ccc1Cl	inconclusive: 708 nM [activator, single point]	–
NC1=NC[C@@H](Cc2ccc(O)cc2)N1CC1CCCCC1	inconclusive: 2820 nM [activator, single point]	–
O=C(/C=C/c1cccc(Cl)c1)N1CCC(Cc2ccccc2)CC1	inconclusive: 5620 nM [activator, single point]	–
